Assay results published in PubChem BioAssay AID662 (National Center for Advancing Translational Sciences (NCATS), 2007).
Values joined by “and” are separate entries in the source; they are usually repeats but may differ in a detail not shown here. Identical values can stand only once. This is one part of the list. These are further read-outs of the screen, such as a control signal, another cell line or another target. No call is given for them. Most of these compounds were active or inconclusive in the main read-out, so they are no random draw. Words in brackets tell the shape of the fitted curve; partial curves, single points and poor fits give uncertain potencies.

assay: Cell signaling CRE-BLA (Fsk stim); conditions: CHO CRE-bla reporter (cAMP response element driving beta-lactamase), forskolin EC10, beta-lactamase ratio; measured here: 460 nm blue channel
How it was run: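 AC50 values, positive or negative, reflect shifts in EC10 NKH 477-induced CRE-bla reporter activity in CHO cells. Incubation lasted 3 h at 37 °C before CCF4 substrate (2 h, room temperature) and ratiometric 460/530 nm reading.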

| SMILES | AC50 |
| --- | --- |
| CCCCOc1ccccc1NC(=O)CC1SC(=NCC)N(CC)C1=O (stereo not drawn) | 0.251 µM [rising, full curve, poor fit] |
| CCn1c(=O)cc(OCC(=O)Nc2ccccc2N2CCN(C)CC2)c2ccccc21 | 5.01 µM [rising, partial curve] |
| CC(C)OC(=O)c1cccc(C(=O)O)n1 | 0.794 µM [rising, full curve] |
| O=C(NCc1ccncc1)c1c(F)c(F)c(F)c(F)c1F | 31.6 µM [falling, single point] |
| CN(C)c1ncc2nc(-c3cccs3)c(=O)n(CCc3ccccc3)c2n1 | 5.01 µM [rising, partial curve] |
| Cc1ccc(S(=O)(=O)c2cc3c(=O)n4ccccc4nc3n(Cc3ccco3)c2=N)cc1 | 10 µM [rising, partial curve] |
| CCN(CC)CCCNC(=O)c1cc2c(-c3ccc(Cl)cc3)nn(C)c2s1 | 6.31 µM [rising, partial curve] |
| O=c1c2c3c(sc2nc2n1CCCC2)CCC3 | 12.6 µM [rising, partial curve] |
| COc1ccccc1NC(=O)CSc1nc2ncccc2[nH]1 | 0.02 µM [rising, full curve] |
| CCOc1ccc(S(=O)(=O)N(CC(=O)N2CCc3ccccc32)Cc2ccco2)cc1 | 25.1 µM [falling, single point] |
| COC(=O)C1=C(C)N(c2cc(Cl)cc(Cl)c2)C(=O)C1 | 12.6 µM [falling, partial curve] |
| CCCCn1c(SCC(=O)N2CCCC2)nc2c1c(=O)n(C)c(=O)n2C | 20 µM [rising, single point] |
| O=C(CSc1nnc(-c2cccs2)n1-c1ccccc1)Nc1ccccc1 | 7.94 µM [rising, partial curve] |
| O=c1c(-c2cc(F)cc(F)c2)nc2cnc(N3CCOCC3)nc2n1C1CC1 | 1.58 µM [rising, partial curve] |
| CCCCOC(=O)Cn1c(=N)n(CCN2CCOCC2)c2ccccc21 | 12.6 µM [falling, single point] |
| O=C(c1cc2c(s1)CCC2)N1C(=O)c2ccccc2S1(=O)=O | 3.16 µM [falling, single point] |
| O=c1c(-c2ccc(Cl)cc2)nc2cnc(N3CCOCC3)nc2n1-c1ccccc1 | 0.398 µM [rising, full curve] |
| O=CCCCC=O | 25.1 µM [rising, partial curve] |
| COc1cc(NC(=O)c2c(-c3ccccc3Cl)noc2C)c2ncccc2c1 | 2.51 µM [rising, full curve] |
| CCOc1ccc(NCC2CCOC(C)(C)C2)cc1 (stereo not drawn) | 3.98 µM [rising, full curve] |
| O=C(CSc1n[nH]c(-c2ccncc2)n1)Nc1ccccn1 | 5.01 µM [rising, single point] |
| Cn1c(C(=O)NC2CCCCC2)cc2c(=O)n(C)c3ccccc3c21 | 3.16 µM [rising, full curve, poor fit] |
| O=C(Nc1ccc2c(c1)nc1n2CCCCC1)c1cc(S(=O)(=O)N2CCOCC2)ccc1Cl | 3.16 µM [rising, single point] |

| SMILES | AC50 |
| --- | --- |
| Cc1cc(C)n(CC(O)CN2c3ccccc3Sc3ccccc32)n1 (stereo not drawn) | 25.1 µM [falling, single point] |
| O=C(Nc1cccc(C(F)(F)F)c1)C1CCCN(S(=O)(=O)c2cnc[nH]2)C1 (stereo not drawn) | 0.126 µM [falling, full curve, poor fit] |
| COc1ccccc1CNc1nc(-c2ccc(N(C)C)cc2)nc2ccccc12 | 5.01 µM [rising, partial curve] |
| CCc1cc(C(=O)c2ccccc2OC)c(N)s1 | 1.26 µM [falling, partial curve, poor fit] |
| Cc1nc(C)c(-c2csc(NCc3ccco3)n2)s1 | 12.6 µM [rising, single point] |
| COc1ccc(C2=NOC(C(=O)NCCN3CCOCC3)C2)cc1 (stereo not drawn) | 5.01 µM [falling, single point] |
| Cc1nc(SCC#N)c2c3c(sc2n1)CCC3 | 1.26 µM [rising, partial curve] |
| O=C(O)CCc1nc2cccnc2n1Cc1ccccc1 | 12.6 µM [rising, single point] |
| CCOC(=O)C(C)Oc1cccc2c(=O)n(CC(=O)Nc3ccc4c(c3)OCCO4)ccc12 (stereo not drawn) | 10 µM [rising, partial curve] |
| Fc1ccc(CSc2ncnc3nc[nH]c23)cc1 | 12.6 µM [rising, partial curve] |
| CC(C)(C)c1cc(=O)n2c(C#N)c(C#N)nc2[nH]1 | 0.631 µM [rising, single point] |
| COc1ccc(-c2cn3ccccc3n2)cc1OC | 12.6 µM [rising, single point] |
| Cc1cc(C(=O)Nc2c(C)n(C)n(-c3ccccc3)c2=O)cs1 | 5.01 µM [falling, full curve] |
| COc1ccc2c(c1)N(C)C(=O)CC(c1ccccc1)=N2 | 25.1 µM [falling, single point] |
| CCc1nnc(SCc2ccc(OC)c(Br)c2)n1N | 0.0631 µM [rising, single point] |
| Cc1cc(C)cc(N2C(=O)C3CC=CCC3C2=O)c1 (stereo not drawn) | 12.6 µM [rising, single point] |
| COc1ncnc2sc(-c3ccccc3)cc12 | 12.6 µM [rising, single point] |
| CCN1CCN(C(=O)c2cc3cc4cc(OC)ccc4nc3s2)CC1 | 10 µM [rising, single point] |
| COc1cc(-c2nnc(SCc3c(F)cccc3Cl)o2)cc(OC)c1OC | 3.98 µM [rising, partial curve] |
| CCC(Sc1nc2n[nH]c(C)c2c(=N)n1-c1cccc(Cl)c1C)C(=O)N(CC)CC (stereo not drawn) | 1 µM [rising, full curve, poor fit] |
| CCCCn1c(SCC(N)=O)nnc1-c1cc(OC)c(OC)c(OC)c1 | 6.31 µM [rising, partial curve] |
| CC1CCCCC1NC(=O)COc1ccc(-n2cnnn2)cc1 (stereo not drawn) | 0.00398 µM [falling, full curve] |
| CC(C)Nc1ncnc2c1cnn2-c1ccc(Cl)cc1 | 2 µM [rising, full curve] |

| SMILES | AC50 |
| --- | --- |
| COCCN1C(=O)C(O)=C(C(=O)c2ccco2)C1c1cccc(Oc2ccccc2)c1 (stereo not drawn) | 0.794 µM [rising, single point] |
| CN(C)S(=O)(=O)c1ccc(C(=O)Nc2nc(-c3cccs3)cs2)cc1 | 12.6 µM [rising, single point] |
| CCCn1c(SCc2ccccc2)nc2c1c(=O)[nH]c(=O)n2C | 12.6 µM [rising, single point] |
| Cn1c(-c2ccc(Cl)cc2)cnc1N | 0.631 µM [falling, partial curve] |
| CCOC(=O)c1cnc(SC2CC(=O)N(c3ccc(OC)c(OC)c3)C2=O)nc1N (stereo not drawn) | 15.8 µM [rising, single point] |
| COc1ccc2[nH]c(=O)c(CN(CCc3ccccc3)Cc3nnnn3CC3CCCO3)cc2c1 (stereo not drawn) | 15.8 µM [rising, single point] |
| COc1cccc(-c2cncnc2NCCc2c[nH]c3ccc(OC)cc23)c1 | 0.2 µM [rising, partial curve] |
| O=C(Nc1cc(=O)c2ccccc2o1)N1CCOCC1 | 3.16 µM [rising, partial curve] |
| Nc1nc(N)c2nc(-c3ccccc3)c(N)nc2n1 | 31.6 µM [rising, single point] and 10 µM [rising, partial curve] and 15.8 µM [rising, partial curve] |
| CC1=C(C(=O)OCc2ccccc2)C(c2ccccc2)NC(=O)N1CCCCCC(=O)O (stereo not drawn) | 0.0316 µM [rising, single point] |
| CC1CCCCN1CCNC(=O)Cn1nc(-c2ccccc2)ccc1=O (stereo not drawn) | 3.16 µM [rising, partial curve, poor fit] |
| C=C(C)CSc1nc(N)cc(=O)[nH]1 | 15.8 µM [falling, partial curve] |
| CCCc1c(OCCCOc2ccc(OCC(=O)O)cc2)ccc(CC=O)c1O | 0.1 µM [rising, full curve] |
| O=C(OCc1csc(-c2ccccc2)n1)c1cccs1 | 3.98 µM [falling, single point] |
| COc1ccc(Cl)cc1NC(=O)Cn1c(=O)n2nc(C)nc2c2ccccc21 | 3.98 µM [rising, single point] |
| CCCCOC(=O)CNc1nnc(SCC(=O)OCC)[nH]c1=O | 25.1 µM [falling, single point] |
| O=C1c2ccccc2S(=O)(=O)N1Cc1nc2ccccc2s1 | 0.00398 µM [falling, full curve, poor fit] |
| CCCCCCn1c(N(CC)CC)nc2c1c(=O)[nH]c(=O)n2C | 10 µM [rising, partial curve] |
| CCOC(=O)CCc1c(C)c2ccc(O)cc2oc1=O | 25.1 µM [rising, single point] |
| Cc1cc(Nc2ccc3c(c2)OCCO3)n2nc(C)nc2n1 | 6.31 µM [rising, partial curve] |
| CC(C)C[C@@H](CC(=O)N[C@H](CC(=O)N[C@@H]1CCCC[C@H]1C(=O)N[C@H](CC(=O)N[C@@H](CCC(=O)O)CC(=O)O)Cc1ccccc1)C(C)C)NC(=O)[C@@H]1CCCC[C@H]1N | 7.94 µM [falling, full curve, poor fit] |
| CCOC(=O)c1sc(NC(=O)CSc2nnnn2-c2ccccc2)nc1C | 3.98 µM [rising, partial curve, poor fit] |
